Reference: PubChem BioAssay AID1224826 (NIAID, 2016)

Purpose: 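Regulators of Tlr4 signalling leading to Tnf-alpha expression in macrophages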 (primary screen)
System: RAW264.7 G9 macrophages from mouse bearing reporters for p65 (GFP) and the Tnf promoter (mCherry)
Reagents: siRNA pool against mouse genes, 100 nM
Duration: 16 h of LPS stimulation, after 2 days of siRNA transfection
Treatment: bacterial lipopolysaccharide (Salmonella minnesota R595), 10 ng/ml
Detection: 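Nuclear mCherry signal of the Tnf promoter reporter measured by imaging after background removal, scaled to each plate median and turned into robust z-scores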
Direction: Tnf reporter robust z-score: higher = stronger Tnf promoter reporter signal after LPS
Hit rule: 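Called active when robust z-score is at most -1.3, matching the median of the Tlr4 knock-down control, or over 3; control wells and wells with under 50 cells never active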
Meaning of the calls: active = Tnf reporter clearly lowered or raised; inactive = no clear change in Tnf reporter
In all, the deposit lists about 17,000 reagents; this is a random part of them. Of all reagents, about 1,110 (6.6%) were called active. 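Active means lowered or raised reporter signal; replicate intensities are raw and not normalised per plate.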 A number with no mark means an inactive call. Not all columns of the deposit are shown. Reagent sequences are not shown.

Against Trappc11 [SID315481379], the values are Tnf reporter robust z-score -0.37; fewer than 50 cells in well enough cells in well.
Dazap1 [SID315474001] gave Tnf reporter robust z-score -1.82 (active); fewer than 50 cells in well enough cells in well.
Arid1a [SID315475969] showed Tnf reporter robust z-score -0.31; fewer than 50 cells in well enough cells in well.
For Bhlha15 [SID315467927] the deposit lists Tnf reporter robust z-score 0.14; fewer than 50 cells in well enough cells in well.
Against Csn1s1 [SID315466165], the entry reads Tnf reporter robust z-score 2.38; fewer than 50 cells in well enough cells in well.

A few values from the entries so far:
Bhlha15 [SID315467927], fewer than 50 cells in well: enough cells in well
For “fewer than 50 cells in well”, Dazap1 [SID315474001] has enough cells in well (active)

Additional results follow.
Phyh [SID315467758] scored Tnf reporter robust z-score 0.05; fewer than 50 cells in well enough cells in well.
After knock-down of Vegfd [SID315466690], the record shows Tnf reporter robust z-score 0.27; fewer than 50 cells in well enough cells in well.
Or2t46 [SID315479956] showed Tnf reporter robust z-score -1.78 (active); fewer than 50 cells in well enough cells in well.
Against Tprn [SID315476091], the entry reads Tnf reporter robust z-score 1.54; fewer than 50 cells in well enough cells in well.
Otof [SID315475862] showed Tnf reporter robust z-score -0.65; fewer than 50 cells in well enough cells in well.
Against Adam21 [SID315471618] the deposit lists Tnf reporter robust z-score 0.31; fewer than 50 cells in well enough cells in well.
For Ikbke [SID315471569], the values are Tnf reporter robust z-score 1.2; fewer than 50 cells in well enough cells in well.
